Laboratory results published in patent publication US20110269211.
Substitutions are numbered along the chain they refer to. Construct, isoform or probe ends are uncertain for at least one entry. Where a protein sequence is shown, tags need not be part of it.

Assays:
Experiment in all cases: activity assay
[1] = test system: T1, Kofu clone 10/7-D4 F591L,K447E,K563T,K606E,E621G (Artificial (KOD/Pfu chimera)); settings: M13 primer extension, 2.5 mM MgCl2, 50 C; heparin elution 39.3 mS/cm; purified recombinant protein
T1 sequence (limits assumed): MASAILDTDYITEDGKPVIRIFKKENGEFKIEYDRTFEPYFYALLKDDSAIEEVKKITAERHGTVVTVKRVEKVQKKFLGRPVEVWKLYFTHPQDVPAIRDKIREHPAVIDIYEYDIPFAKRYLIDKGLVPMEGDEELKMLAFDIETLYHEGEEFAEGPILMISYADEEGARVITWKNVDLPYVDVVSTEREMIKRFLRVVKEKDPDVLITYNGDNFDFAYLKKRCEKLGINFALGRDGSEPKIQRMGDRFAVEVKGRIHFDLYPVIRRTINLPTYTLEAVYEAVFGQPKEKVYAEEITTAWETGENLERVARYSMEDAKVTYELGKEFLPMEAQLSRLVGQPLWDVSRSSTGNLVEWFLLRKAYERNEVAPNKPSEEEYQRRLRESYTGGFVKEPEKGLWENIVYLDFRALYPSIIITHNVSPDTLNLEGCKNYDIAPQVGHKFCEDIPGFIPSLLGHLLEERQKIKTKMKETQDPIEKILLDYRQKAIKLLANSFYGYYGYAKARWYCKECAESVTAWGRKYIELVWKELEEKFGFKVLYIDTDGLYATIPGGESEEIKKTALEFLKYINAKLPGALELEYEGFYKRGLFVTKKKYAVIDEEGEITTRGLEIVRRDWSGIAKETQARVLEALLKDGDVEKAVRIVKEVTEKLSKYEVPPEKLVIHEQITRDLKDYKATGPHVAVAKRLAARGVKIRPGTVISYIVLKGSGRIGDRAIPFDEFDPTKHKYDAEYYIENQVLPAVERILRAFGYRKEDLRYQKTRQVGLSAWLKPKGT

[2] = test system: T2, Kofu clone 11/5Hi-E3 R410H,F591L,E580G,K588R,K597R,A679V,R693Q,D725E (Artificial (KOD/Pfu chimera)); settings: M13 primer extension, 2.5 mM MgCl2, 50 C; heparin elution 38 mS/cm; purified recombinant protein
T2 sequence (limits assumed): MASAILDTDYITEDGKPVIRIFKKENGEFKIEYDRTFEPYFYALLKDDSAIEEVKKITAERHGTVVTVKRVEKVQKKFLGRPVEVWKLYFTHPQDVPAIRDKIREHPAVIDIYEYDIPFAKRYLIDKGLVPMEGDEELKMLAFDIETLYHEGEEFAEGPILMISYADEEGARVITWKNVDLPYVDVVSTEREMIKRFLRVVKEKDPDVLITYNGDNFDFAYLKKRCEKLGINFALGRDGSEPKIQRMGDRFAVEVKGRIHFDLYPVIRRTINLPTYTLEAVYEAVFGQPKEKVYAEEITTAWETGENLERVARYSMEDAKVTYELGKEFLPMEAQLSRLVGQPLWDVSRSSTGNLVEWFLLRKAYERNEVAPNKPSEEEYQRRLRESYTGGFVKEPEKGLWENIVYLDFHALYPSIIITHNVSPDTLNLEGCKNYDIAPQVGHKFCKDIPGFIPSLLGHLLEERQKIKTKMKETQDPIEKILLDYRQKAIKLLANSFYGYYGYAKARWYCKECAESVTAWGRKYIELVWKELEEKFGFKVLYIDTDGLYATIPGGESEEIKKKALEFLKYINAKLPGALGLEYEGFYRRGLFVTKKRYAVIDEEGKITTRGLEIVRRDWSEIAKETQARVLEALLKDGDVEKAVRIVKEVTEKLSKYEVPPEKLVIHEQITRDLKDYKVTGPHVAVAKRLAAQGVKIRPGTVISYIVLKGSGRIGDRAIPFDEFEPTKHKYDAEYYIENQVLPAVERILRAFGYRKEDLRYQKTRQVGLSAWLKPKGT

[3] = target: T3, Kofu DNA polymerase (KOD/Pfu chimera) (UniProt P56689); settings: M13 primer extension, 2.5 mM MgCl2, 50 C, SYBR Green; reference; heparin elution 37 mS/cm; purified recombinant protein
T3 sequence (limits assumed): T1 sequence (limits assumed) with E447K, T563K, L591F, E606K, G621E

“AACGCCAGGGTTTTCCCAGTCACGACGTTGTAAAACGACG” was tested, and the activity on this sequence [1] was 7 fold vs Kofu, the activity on this sequence [2] was 3 fold vs Kofu and the activity on this sequence (relative to Kofu) [3] was 1.
